Results reported in paper doi:10.1101/2024.02.14.580281.
These are yes or no findings as the source states them, for the method shown. In cells and extracts the contact can be indirect. Some entries that bind do so weakly or less than the wild type. Blank lines part the entries; values can stand above or below the binder they belong to.

Assays:
MNS1 = target: T1, MNS1 (UniProt Q8NEH6); test: co-IP
T1 sequence: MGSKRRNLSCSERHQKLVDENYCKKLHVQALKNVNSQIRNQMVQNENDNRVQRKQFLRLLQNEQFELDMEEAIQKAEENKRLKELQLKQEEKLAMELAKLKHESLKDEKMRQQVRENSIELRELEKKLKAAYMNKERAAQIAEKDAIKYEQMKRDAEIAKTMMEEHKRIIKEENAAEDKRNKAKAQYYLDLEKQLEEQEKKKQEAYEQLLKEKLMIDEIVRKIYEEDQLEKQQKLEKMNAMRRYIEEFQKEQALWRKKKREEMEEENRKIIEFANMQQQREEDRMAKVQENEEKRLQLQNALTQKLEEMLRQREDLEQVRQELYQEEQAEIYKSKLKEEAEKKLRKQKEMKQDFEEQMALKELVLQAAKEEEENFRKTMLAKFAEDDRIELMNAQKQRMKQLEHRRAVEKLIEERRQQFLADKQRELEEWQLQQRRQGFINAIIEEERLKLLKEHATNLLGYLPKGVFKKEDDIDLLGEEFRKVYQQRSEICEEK

CFAP53 = CFAP53 (UniProt Q96M91); test: co-IP

binding (MNS1): binds
B1: MNS1 (protein, UniProt Q8NEH6 1-495)
chain: T1 sequence

binding (CFAP53): no binding | binding (MNS1): binds
B2: CFAP53 (protein, UniProt Q96M91 1-514)
chain: MYSQRFGTVQREVKGPTPKVVIVRSKPPKGQGAEHHLERIRRSHQKHNAILASIKSSERDRLKAEWDQHNDCKILDSLVRARIKDAVQGFIINIEERRNKLRELLALEENEYFTEMQLKKETIEEKKDRMREKTKLLKEKNEKERQDFVAEKLDQQFRERCEELRVELLSIHQKKVCEERKAQIAFNEELSRQKLVEEQMFSKLWEEDRLAKEKREAQEARRQKELMENTRLGLNAQITSIKAQRQATQLLKEEEARLVESNNAQIKHENEQDMLKKQKAKQETRTILQKALQERIEHIQQEYRDEQDLNMKLVQRALQDLQEEADKKKQKREDMIREQKIYHKYLAQRREEEKAQEKEFDRILEEDKAKKLAEKDKELRLEKEARRQLVDEVMCTRKLQVQEKLQREAKEQEERAMEQKHINESLKELNCEEKENFARRQRLAQEYRKQLQMQIAYQQQSQEAEKEEKRREFEAGVAANKMCLDKVQEVLSTHQVLPQNIHPMRKACPSKLPP
